Experimental data reported in patent US20240277807A1.
These are yes or no findings as the source states them, for the method shown. Some results given as binding are weak or reduced against the parent protein; the word gives no strength.

Sequences of proteins named here, by UniProt entry; tags and fusion partners are left off. A change or cut given only in a name is not applied to a line headed by its entry. Residues count along the entry.
UniProt O95390, residues 299-407: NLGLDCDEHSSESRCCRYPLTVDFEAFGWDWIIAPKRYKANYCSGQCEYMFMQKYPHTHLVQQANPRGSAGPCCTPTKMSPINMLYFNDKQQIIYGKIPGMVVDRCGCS
UniProt P22004, residues 382-513: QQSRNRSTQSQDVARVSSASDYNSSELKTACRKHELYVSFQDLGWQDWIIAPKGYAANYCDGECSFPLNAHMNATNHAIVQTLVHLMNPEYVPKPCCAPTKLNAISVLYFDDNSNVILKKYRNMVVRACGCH
UniProt O14793, residues 267-375: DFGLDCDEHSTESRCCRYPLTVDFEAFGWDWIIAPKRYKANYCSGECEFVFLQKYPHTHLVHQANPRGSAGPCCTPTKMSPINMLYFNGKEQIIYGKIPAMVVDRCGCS
UniProt P27037: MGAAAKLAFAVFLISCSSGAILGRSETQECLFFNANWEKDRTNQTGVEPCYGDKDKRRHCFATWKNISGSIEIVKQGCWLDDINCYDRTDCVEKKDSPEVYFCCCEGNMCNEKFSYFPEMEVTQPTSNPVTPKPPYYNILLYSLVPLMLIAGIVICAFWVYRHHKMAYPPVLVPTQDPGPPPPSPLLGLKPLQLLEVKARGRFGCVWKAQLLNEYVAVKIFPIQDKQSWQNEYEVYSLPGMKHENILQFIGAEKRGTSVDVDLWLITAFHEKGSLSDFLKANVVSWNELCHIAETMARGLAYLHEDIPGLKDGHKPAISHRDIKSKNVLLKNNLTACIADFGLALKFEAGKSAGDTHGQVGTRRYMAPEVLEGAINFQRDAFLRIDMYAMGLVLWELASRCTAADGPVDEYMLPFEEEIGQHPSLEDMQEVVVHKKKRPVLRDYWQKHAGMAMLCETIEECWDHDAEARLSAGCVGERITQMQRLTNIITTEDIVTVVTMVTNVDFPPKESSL

What was measured:
GDF11 = GDF11 (UniProt O95390); test: Biacore SPR; ligand amine-coupled to CM5 chip, receptor-Fc as analyte
BMP10 = target: T1, BMP10 (UniProt O95393); test: similar Biacore binding assay
T1 sequence (looked up): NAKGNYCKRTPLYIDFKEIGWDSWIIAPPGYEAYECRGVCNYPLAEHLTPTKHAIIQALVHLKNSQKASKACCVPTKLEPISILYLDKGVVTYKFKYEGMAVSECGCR

BMP6 = BMP6 (UniProt P22004); test: similar Biacore binding assay
GDF8 = GDF8 (UniProt O14793); test: similar Biacore binding assay
activin B = target: T2, activin B (UniProt P09529); test: similar Biacore binding assay
T2 sequence (looked up): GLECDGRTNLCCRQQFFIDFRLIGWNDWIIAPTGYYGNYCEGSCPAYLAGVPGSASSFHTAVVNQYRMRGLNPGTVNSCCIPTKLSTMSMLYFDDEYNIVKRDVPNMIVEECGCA

Measured: binding

ActRIIA-mFc (from UniProt P27037 21-135) (Fc fusion)
binds: GDF11 | BMP10 | BMP6 | GDF8 | activin B
